Source: article PMC10585711

How the values were obtained:
GST-MaNAC083 (banana) [1] = test: EMSA; conditions: LightShift Chemiluminescent EMSA kit, native acrylamide gel; pH and temperature not stated (refers to previous work); recombinant protein; protein details: N-terminal GST (pGEX-4T-1); label: 5' biotin
GST-MaNAC083 (banana) [2] = test: competition EMSA; conditions: LightShift Chemiluminescent EMSA kit, native acrylamide gel, pH and temperature not stated (refers to previous work), recombinant protein, protein details: N-terminal GST (pGEX-4T-1), label: none (unlabeled competitor)

| Sequence | binding result (GST-MaNAC083 (banana) [1]) | further results |
| --- | --- | --- |
| TGGAAGAACTCAACAACATGATGCCTTCCCGGGTCT (double strand) [MaACO1 probe] | binds |  |
| AACGTCCTCGAAGCTCACATGCGTTGCCGGGCTGAA (double strand) [MaACO5 probe] | binds |  |
| AACGTCCTCGAAGCTCGGGGGCGTTGCCGGGCTGAA (double strand) [MaACO5 mutant probe] |  | binding result (GST-MaNAC083 (banana) [2]; unlabeled competitor vs N7): no binding |
| TGTGAGACGGAGGAGCCCCCTATGCATGACAACCGG (double strand) [MaACO8 mutant probe] |  | binding result (GST-MaNAC083 (banana) [2]; unlabeled competitor vs N9): no binding |
| TGGAAGAACTCAACAGGGGGATGCCTTCCCGGGTCT (double strand) [MaACO1 mutant probe] |  | binding result (GST-MaNAC083 (banana) [2]; unlabeled competitor vs N3): no binding |
| TCACCCGAGCAGCGCCATGTGCAGATAAAAGAAACA (double strand) [MaACO4 probe] | binds |  |
| TCACCCGAGCAGCGCCCCCCGCAGATAAAAGAAACA (double strand) [MaACO4 mutant probe] |  | binding result (GST-MaNAC083 (banana) [2]; unlabeled competitor vs N5): no binding |
| TTCTTTCGCAAACAGCCCCCCATCGATGAGATTAAG (double strand) [MaACS1 mutant probe] |  | binding result (GST-MaNAC083 (banana) [2]; unlabeled competitor vs N1): no binding |
| TGTGAGACGGAGGAGCATGTTATGCATGACAACCGG (double strand) [MaACO8 probe] | binds |  |
| TTCTTTCGCAAACAGCATGTCATCGATGAGATTAAG (double strand) [MaACS1 probe] | binds |  |

Construct, isoform or probe ends are uncertain for at least one entry. For some of these results: No signal at the amounts used counts as a negative.
